Library screen at single concentrations

By UniProt entry, the sequences of proteins in these tests, tags left out. Residues count along the entry.
UniProt P9WFT3, whole entry: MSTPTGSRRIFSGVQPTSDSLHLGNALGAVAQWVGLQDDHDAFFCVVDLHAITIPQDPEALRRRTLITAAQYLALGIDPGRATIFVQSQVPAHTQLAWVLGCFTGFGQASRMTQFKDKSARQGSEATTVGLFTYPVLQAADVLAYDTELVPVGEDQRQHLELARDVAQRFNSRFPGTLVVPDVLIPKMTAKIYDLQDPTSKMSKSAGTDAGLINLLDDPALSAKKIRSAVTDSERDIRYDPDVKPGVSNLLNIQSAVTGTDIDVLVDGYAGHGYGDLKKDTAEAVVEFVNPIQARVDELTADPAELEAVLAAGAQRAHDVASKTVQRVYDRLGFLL
UniProt P9WNZ1, whole entry: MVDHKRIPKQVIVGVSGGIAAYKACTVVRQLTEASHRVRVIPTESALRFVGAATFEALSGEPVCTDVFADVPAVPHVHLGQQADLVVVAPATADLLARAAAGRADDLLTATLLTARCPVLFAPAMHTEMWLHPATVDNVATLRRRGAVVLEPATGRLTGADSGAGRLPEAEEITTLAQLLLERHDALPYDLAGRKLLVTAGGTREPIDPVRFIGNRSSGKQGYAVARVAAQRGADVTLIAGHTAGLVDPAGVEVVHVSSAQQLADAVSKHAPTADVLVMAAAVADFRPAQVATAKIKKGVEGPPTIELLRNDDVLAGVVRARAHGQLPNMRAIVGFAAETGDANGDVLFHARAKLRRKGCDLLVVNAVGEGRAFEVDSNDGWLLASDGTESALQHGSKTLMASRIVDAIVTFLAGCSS
UniProt A4I591, 1-473: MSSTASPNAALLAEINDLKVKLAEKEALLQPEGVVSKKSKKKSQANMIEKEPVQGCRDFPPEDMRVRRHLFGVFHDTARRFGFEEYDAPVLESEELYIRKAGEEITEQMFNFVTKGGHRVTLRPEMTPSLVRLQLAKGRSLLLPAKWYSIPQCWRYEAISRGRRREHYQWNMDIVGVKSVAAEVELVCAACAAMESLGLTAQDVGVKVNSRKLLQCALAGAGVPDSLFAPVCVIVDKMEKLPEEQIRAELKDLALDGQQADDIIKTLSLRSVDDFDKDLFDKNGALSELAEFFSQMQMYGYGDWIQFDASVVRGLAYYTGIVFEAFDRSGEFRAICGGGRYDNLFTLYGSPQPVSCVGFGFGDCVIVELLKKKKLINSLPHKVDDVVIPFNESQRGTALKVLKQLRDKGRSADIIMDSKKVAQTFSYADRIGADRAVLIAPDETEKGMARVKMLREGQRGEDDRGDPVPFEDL
UniProt I6X8D2, whole entry: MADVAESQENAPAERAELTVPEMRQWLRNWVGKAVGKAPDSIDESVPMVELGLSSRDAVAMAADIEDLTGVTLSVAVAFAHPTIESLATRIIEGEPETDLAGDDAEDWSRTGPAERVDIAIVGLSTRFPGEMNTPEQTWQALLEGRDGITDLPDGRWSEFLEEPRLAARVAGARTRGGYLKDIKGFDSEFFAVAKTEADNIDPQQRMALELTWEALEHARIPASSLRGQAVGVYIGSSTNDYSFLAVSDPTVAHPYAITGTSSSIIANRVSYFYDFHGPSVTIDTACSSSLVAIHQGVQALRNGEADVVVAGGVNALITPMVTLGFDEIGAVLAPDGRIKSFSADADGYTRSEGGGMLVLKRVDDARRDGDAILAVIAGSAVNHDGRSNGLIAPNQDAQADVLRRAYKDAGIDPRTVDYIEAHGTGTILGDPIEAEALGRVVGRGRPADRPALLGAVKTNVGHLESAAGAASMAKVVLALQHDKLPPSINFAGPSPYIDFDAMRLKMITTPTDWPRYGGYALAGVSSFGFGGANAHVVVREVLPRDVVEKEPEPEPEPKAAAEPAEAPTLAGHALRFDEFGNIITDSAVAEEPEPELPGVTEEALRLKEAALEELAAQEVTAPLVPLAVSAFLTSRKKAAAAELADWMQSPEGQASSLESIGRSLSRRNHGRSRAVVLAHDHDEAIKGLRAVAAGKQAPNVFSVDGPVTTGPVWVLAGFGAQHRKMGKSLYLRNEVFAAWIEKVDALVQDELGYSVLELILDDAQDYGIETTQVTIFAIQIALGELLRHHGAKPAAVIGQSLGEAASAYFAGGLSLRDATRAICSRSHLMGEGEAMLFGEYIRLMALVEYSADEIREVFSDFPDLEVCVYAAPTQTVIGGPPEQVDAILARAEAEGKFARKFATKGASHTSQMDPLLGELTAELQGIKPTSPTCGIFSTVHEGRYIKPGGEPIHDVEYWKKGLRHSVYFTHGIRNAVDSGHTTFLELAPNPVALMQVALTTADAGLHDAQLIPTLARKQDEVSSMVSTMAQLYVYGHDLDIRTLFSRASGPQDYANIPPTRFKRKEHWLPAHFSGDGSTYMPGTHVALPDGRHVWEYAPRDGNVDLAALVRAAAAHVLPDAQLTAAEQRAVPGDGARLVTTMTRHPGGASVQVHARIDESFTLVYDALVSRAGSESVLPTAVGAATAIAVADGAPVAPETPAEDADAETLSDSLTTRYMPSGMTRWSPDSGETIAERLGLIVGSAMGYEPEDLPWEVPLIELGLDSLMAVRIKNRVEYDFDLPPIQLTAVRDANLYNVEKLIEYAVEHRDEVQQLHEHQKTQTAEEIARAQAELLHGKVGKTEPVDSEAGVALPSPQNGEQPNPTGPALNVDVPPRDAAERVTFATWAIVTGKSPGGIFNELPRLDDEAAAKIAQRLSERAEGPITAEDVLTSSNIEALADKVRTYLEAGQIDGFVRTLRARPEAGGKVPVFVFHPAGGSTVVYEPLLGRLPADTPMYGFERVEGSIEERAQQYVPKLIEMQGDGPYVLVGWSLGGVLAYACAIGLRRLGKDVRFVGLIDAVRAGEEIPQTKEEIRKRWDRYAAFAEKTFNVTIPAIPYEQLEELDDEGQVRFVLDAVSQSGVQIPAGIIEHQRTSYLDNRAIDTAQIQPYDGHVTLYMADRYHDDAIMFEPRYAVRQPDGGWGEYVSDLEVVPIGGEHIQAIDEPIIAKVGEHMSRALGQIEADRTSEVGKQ

Source: ChEMBL document CHEMBL3988442, “University of Dundee, Small-Polar-MMV Screening Library” (2021).

Values are the deposited “Percent Effect”, in %. The controls that fix the scale are not given in the record; negative values are as filed. Compounds were drawn at random from those tested, without regard to their results. A dash means the value is not listed here; it may have been measured.

MtTrpRS: 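Enzyme assay of tryptophanyl-tRNA synthetase; the read-out is not stated. Target: Tryptophan-tRNA ligase, Mycobacterium tuberculosis (UniProt P9WFT3). Concentration: 10 µM. Direction is not recorded; retested compounds ran higher, which suggests that high means inhibition. Of about 65,000 compounds tested this way, about 64 (0.098%) reached 50% or more in at least one test.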
CoaBC: 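Enzyme assay of CoaBC with a phosphate dye (Biomol Green) read at 650 nm. Target: Coenzyme A biosynthesis protein CoaBC, Mycobacterium tuberculosis (UniProt P9WNZ1). Concentration: 30 µM. Higher reads as stronger inhibition, judged from the few compounds that gave an IC50. Most strong results did not repeat in a second test. About 67,000 compounds were tested under these conditions; 0.06% (about 40) showed 50% or more at least once.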
LiHisRS: 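Histidine-tRNA ligase, Leishmania infantum (UniProt A4I591). Enzyme assay of histidyl-tRNA synthetase; the read-out is not stated. Concentration: 30 µM. Direction is inferred from retests: higher values go with stronger inhibition. The assay is labelled LdHisRS but filed under L. infantum. About 69,000 compounds were tested under these conditions; 0.6% (about 410) showed 50% or more at least once.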
Pks13 thioesterase: 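Polyketide synthase Pks13, Mycobacterium tuberculosis (UniProt I6X8D2). Enzyme assay of the thioesterase domain of polyketide synthase 13; the read-out is not stated. Concentration: 30 µM. Higher reads as stronger inhibition (inferred from which compounds were picked for retests). Of about 67,000 compounds tested this way, about 300 (0.46%) reached 50% or more in at least one test.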

compound	MtTrpRS	CoaBC	LiHisRS	Pks13 thioesterase
CCN1CCN(C2CCN(Cc3nc(-c4ccoc4)no3)CC2)C1=O	-1.839%	-0.7229%	-21.92%	-8.189%
COC(=O)NCC(=O)N1CCCC(c2ncc[nH]2)C1 (stereo not shown)	-0.8158%	3.671%	8.434%	-5.425%
Cc1csc(NC(=O)c2cnc(C3CCCN3)cn2)n1 (stereo not shown)	-32.47%	5.562%	13.1%	21.38%
O=C(NCc1ccc2c(c1)OCO2)c1ccc(N2CCCCC2)nn1	-0.4575%	-1.018%	20.51%	0.464%
COc1ccc(C(=O)N2CCC(Nc3ccc(C)nn3)CC2)c(F)c1	-2.437%	6.527%	2.703%	-8.185%
CCCc1n[nH]cc1C(=O)N1CCCC(c2nccn2CC2CC2)C1 (stereo not shown)	-2.329%	3.426%	-36.99%	-34.64%
O=C(O)c1ccccc1-c1c(-c2ccccc2)ncn1C[C@H]1CCCN1	3.205%	-6.143%	19.35%	-7.964%
CNc1nc(CNC(=O)Nc2cccc(CSC)c2)cs1	1.451%	2.366%	9.174%	-8.249%
Cc1cc(Cc2ccc(F)cc2)cc(C2CCCNC2)n1 (stereo not shown)	11.77%	-2.67%	10%	-6.716%
O=C(C1CC1)N1CCc2[nH]cnc2C12CCN(C1CCOCC1)CC2	-3.123%	-3.636%	10.96%	3.246%
Cc1cc(CN2C[C@@H]3CCCO[C@@H]3[C@H](Nc3ccccn3)C2)no1	-0.3353%	-0.8811%	24.53%	-8.659%
CCOCCCNCc1cc(O)c2cc(C)ccc2n1	4.351%	1.106%	17.05%	-7.995%
CC(=O)NCC(=O)N1CCC(C2CCN(Cc3ccc(Cl)cc3)C2)CC1 (stereo not shown)	-1.192%	7.579%	13.7%	-19.9%
Cc1cccc(CC(=O)N2CCN(c3nccn3C)CC2)c1	-1.527%	6.983%	16.44%	-14.68%
CCS(=O)(=O)N1CCc2c(cccc2NC(=O)NCCO)C1	3.983%	8.678%	15.18%	-1.976%
COC(=O)CCC(=O)NC(C)Cc1ccccc1Br (stereo not shown)	2.973%	-2.733%	11.11%	-7.851%
CCN(CC1CCOC1)C(=O)Nc1ccc(OCC(F)(F)F)nc1 (stereo not shown)	-8.289%	3.684%	19.44%	-3.365%
CCOc1ccccc1C(CC(=O)Nc1nc(C)cs1)NC(C)=O (stereo not shown)	-2.516%	2.926%	15.2%	-1.601%
Cc1cc(CN2C[C@@H]3CCCO[C@@H]3[C@H](N(C)C(C)C)C2)no1	3.171%	9.937%	8.772%	-20.33%
Cc1nn(C)c2cnn(CC(=O)NCc3cccs3)c12	-3.109%	-0.2309%	13.79%	-29.22%
CCCc1cc(N2CCCC2Cn2nc(C)cc2C)n2ncnc2n1 (stereo not shown)	1.858%	-	22.5%	-47.03%
Cc1cc(C)n(CC(C)NC2CCN(Cc3cccc(O)c3)CC2)n1 (stereo not shown)	-4.931%	1.542%	5.208%	15.75%
CC1CCN(C(=O)c2ccnc(-n3cncn3)c2)c2ccccc21 (stereo not shown)	10.98%	7.911%	22.08%	-9.095%
FC(F)CNc1cnc(C2CCCN2)cn1 (stereo not shown)	-4.09%	-5.179%	5.634%	17.65%
OC1COCCN(Cc2cccc(N3CCOCC3)c2)C1 (stereo not shown)	1.204%	0.7317%	17.6%	1.771%
CN[C@@H](C)C(=O)N(Cc1cccc(C)c1)Cc1ccccc1OC	-1.192%	1.585%	21.98%	-6.822%
COc1ccc(NC(=O)COc2nn(C)c3nc(C)cc(C)c23)cn1	0.8777%	0.2296%	14.29%	-8.627%
CC(C)(C)C(=O)N1CC[C@@H]2[C@H](CC1)N(S(C)(=O)=O)CCS2(=O)=O	-3.151%	5.176%	19.27%	-10.99%
C[C@@H]1C[C@@H]2CCN(Cc3nccs3)C[C@H]2O1	-1.26%	-	17.09%	-25.22%
COc1ccc2nnc(CCCC(=O)Nc3nc4c(s3)CCC4)n2n1	1.359%	2.651%	7.692%	1.291%
CCC(CC)S(=O)(=O)NC(=O)c1ccc2c(c1)ncn2C	0.6274%	-1.456%	14.46%	-33.04%
Cc1cc(C(=O)NCC2CCCO2)c(C)n1-c1cccnc1 (stereo not shown)	-0.9132%	-0.2404%	4.167%	-0.7687%
COc1ccc2c(c1)CCCN2C(=O)c1cccc(N(C)C)c1	-7.066%	12.4%	25.64%	-44.56%
NC(=O)N1CCCC(C(=O)NCCOc2ccc(F)cc2F)C1 (stereo not shown)	14.08%	7.018%	13.33%	-5.42%
CCN(CC)S(=O)(=O)c1cnccc1N1CCN(C(C)C)CC1	2.369%	-4.74%	8.929%	-25.6%
CC1N(C)C(=O)COC12CCN(C(=O)CCc1ccccc1)CC2 (stereo not shown)	-0.5394%	-	18.97%	-33.7%
COc1cccc(-c2ccnc3nc(N4CCCCC4)[nH]c(=O)c23)c1	10.8%	-4.211%	2.759%	-83.62%
CCNC(=O)C(C)NC(=O)c1cnc(-c2ccc(C)cc2C)s1 (stereo not shown)	-5.932%	4.307%	7.895%	-9.889%
CSCCC(O)C(=O)N1CCCN(Cc2cccnc2)CC1 (stereo not shown)	2.034%	-33.91%	9.917%	-18.15%
O=C(NCC(c1ccccc1)N1CCOCC1)Nc1cn[nH]c1 (stereo not shown)	-3.135%	4.178%	15.04%	-16.23%
CCc1ccsc1C(=O)N1CCN(CC(C)O)CC1 (stereo not shown)	3.35%	-9.92%	15.38%	-10.15%
CCc1ccc(CN(C)C(=O)C2CC(=O)N(c3cccc(O)c3)C2)nc1 (stereo not shown)	0.6522%	-5.428%	20%	-8.422%
CC(=O)NCC1CCC2(CCN(c3ncnc4oc(C)nc34)CC2)O1 (stereo not shown)	2.853%	3.822%	9.677%	-9.43%
O=C(c1ccccc1)N1CCO[C@@H]2CN(c3ncccn3)C[C@@H]2C1	-0.2907%	-	6.838%	-19.45%
Cc1nc2cc(NCc3cnn(C)c3)ccc2n1C	2.346%	8.854%	23.6%	-14.89%
Cc1nc(C)c(COc2ccc(N(C)S(C)(=O)=O)cc2)s1	4.339%	-	21.13%	-43.12%
CC(CNC(=O)c1cccnc1Oc1cccnc1)N(C)C (stereo not shown)	4.102%	10.02%	17.31%	-12.07%

Some entries from above, unchanged:

compound	MtTrpRS	CoaBC	LiHisRS	Pks13 thioesterase
Cc1cccc(CC(=O)N2CCN(c3nccn3C)CC2)c1	-1.527%	6.983%	16.44%	-14.68%
COc1ccc(C(=O)N2CCC(Nc3ccc(C)nn3)CC2)c(F)c1	-2.437%	6.527%	2.703%	-8.185%
O=C(c1ccccc1)N1CCO[C@@H]2CN(c3ncccn3)C[C@@H]2C1	-0.2907%	-	6.838%	-19.45%
CC(=O)NCC(=O)N1CCC(C2CCN(Cc3ccc(Cl)cc3)C2)CC1 (stereo not shown)	-1.192%	7.579%	13.7%	-19.9%
CSCCC(O)C(=O)N1CCCN(Cc2cccnc2)CC1 (stereo not shown)	2.034%	-33.91%	9.917%	-18.15%